Measurements from PMC9144814.
No constants are given. Whether binding was seen depends on the method and setting. For part of these data: Binding calls can cover weak binding; strength is not graded here.

The chains behind the UniProt entries cited, without tags or fusion partners. Where a name states a change or a piece, a line headed by the entry shows the natural chain unless it says otherwise. A line that says so, or that is headed by a name, gives the form on record, which may keep a tag or linker.
UniProt Q01371: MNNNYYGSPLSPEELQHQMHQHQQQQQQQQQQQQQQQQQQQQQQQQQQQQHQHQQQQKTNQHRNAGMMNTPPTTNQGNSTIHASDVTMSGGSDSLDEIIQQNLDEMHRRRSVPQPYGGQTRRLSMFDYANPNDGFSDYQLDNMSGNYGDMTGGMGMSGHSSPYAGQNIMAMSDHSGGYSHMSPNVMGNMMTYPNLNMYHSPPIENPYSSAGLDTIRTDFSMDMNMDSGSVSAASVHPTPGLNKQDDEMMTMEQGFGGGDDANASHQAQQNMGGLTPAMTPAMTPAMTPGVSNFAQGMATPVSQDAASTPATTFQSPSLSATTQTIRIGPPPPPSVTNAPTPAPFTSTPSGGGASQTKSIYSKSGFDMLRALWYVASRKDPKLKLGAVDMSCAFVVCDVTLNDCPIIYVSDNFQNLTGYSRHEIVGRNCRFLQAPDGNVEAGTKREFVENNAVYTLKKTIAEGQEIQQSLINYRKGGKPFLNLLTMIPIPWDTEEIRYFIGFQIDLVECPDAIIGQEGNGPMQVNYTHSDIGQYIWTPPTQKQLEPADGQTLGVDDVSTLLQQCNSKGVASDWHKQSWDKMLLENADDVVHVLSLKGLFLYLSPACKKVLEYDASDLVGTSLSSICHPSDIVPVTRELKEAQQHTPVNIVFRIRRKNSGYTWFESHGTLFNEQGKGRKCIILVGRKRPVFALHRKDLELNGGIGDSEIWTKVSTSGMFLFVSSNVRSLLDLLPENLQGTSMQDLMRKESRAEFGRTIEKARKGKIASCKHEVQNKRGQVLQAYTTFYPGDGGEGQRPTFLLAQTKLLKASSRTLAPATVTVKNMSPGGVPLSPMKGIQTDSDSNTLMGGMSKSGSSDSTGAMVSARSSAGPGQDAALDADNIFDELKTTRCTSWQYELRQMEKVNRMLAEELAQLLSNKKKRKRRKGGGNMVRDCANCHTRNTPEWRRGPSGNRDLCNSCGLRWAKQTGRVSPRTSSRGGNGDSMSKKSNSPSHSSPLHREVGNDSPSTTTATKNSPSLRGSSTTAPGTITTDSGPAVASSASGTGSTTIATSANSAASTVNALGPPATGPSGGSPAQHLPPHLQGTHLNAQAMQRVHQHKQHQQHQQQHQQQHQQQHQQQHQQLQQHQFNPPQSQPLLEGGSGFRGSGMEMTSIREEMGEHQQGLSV
Photoreceptor VVD (VIVID) from N. crassa (component of the FUN-LOV optogenetic switch) (Q9C3Y6, form named): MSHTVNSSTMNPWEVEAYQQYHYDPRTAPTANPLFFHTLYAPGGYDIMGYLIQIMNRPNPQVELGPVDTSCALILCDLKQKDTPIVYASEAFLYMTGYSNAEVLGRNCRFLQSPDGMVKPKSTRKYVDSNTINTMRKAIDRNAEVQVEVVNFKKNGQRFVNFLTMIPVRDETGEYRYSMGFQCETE

Legend:
[1] = target: LOV domain of WC-1 from N. crassa (component of the FUN-LOV optogenetic switch) (N. crassa) (UniProt Q01371); assay: two-hybrid; Gal4-DBD fusions (BcWCL1 variants) and Gal4-AD fusions (BcWCL2 variants) in S. cerevisiae BY4741 gal4∆ gal80∆; destabilized luciferase reporter under P5XGAL1; luminescence over 24 h at 30 °C; single blue-light pulse (BLP) of 2 h, 466 nm, 20 µmol m^2 s^−1
[2] = target: LOV domain of WC-1 from N. crassa (component of the FUN-LOV optogenetic switch) (N. crassa) (UniProt Q01371); assay: two-hybrid; Gal4-DBD fusions (BcWCL1 variants) and Gal4-AD fusions (BcWCL2 variants) in S. cerevisiae BY4741 gal4∆ gal80∆; destabilized luciferase reporter under P5XGAL1; luminescence every 10 min for 24 h at 30 °C; constant darkness (DD)
[3] = target: LOV domain of WC-1 from N. crassa (component of the FUN-LOV optogenetic switch) (N. crassa) (UniProt Q01371); assay: two-hybrid; Gal4-DBD fusions (BcWCL1 variants) and Gal4-AD fusions (BcWCL2 variants) in S. cerevisiae BY4741 gal4∆ gal80∆; destabilized luciferase reporter under P5XGAL1; luminescence over 24 h at 30 °C; constant blue light (BL), 466 nm, 20 µmol m^2 s^−1

binding [1]: binds | binding [2]: no binding (only constant darkness (DD)) | binding [3]: binds
Substance: Photoreceptor VVD (VIVID) from N. crassa (component of the FUN-LOV optogenetic switch) (from UniProt Q9C3Y6 1-186)
